Test results reported in publication PMC10145933.
These are yes or no findings as the source states them, for the method shown. In cells and extracts the contact can be indirect. Some results given as binding are weak or reduced against the parent protein; the word gives no strength.

Protein sequences, listed by entry. Tags and fused reporters are not part of them.
UniProt Q8N884: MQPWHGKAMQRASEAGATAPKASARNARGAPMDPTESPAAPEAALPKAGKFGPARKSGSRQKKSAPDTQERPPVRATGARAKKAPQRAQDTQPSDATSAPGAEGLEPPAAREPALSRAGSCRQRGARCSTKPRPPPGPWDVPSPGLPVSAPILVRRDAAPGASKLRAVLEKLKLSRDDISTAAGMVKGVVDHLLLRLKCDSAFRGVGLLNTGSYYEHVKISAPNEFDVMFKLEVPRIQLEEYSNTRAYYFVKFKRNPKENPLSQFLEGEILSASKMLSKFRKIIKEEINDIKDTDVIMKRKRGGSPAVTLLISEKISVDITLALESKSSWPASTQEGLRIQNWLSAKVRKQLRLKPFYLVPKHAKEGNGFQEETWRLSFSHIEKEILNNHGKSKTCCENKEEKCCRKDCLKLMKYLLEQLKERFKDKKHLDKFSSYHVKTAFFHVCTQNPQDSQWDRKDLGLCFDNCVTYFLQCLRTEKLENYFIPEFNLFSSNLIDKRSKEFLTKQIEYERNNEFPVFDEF

Target: cyclic GMP-AMP synthase (UniProt Q8N884)
Test: co-IP; HEK293T cells transfected 48 h with HA-Aurora A and Flag-cGAS; lysis in 20 mM Tris-HCl pH 7.5, 150 mM NaCl, 1 mM EDTA, 1% Triton X-100; anti-Flag sepharose beads, 3 h at 4°C; Western blotting

binding: binds
B1: Aurora A (enzyme, UniProt O14965 1-403)
chain: MDRSKENCISGPVKATAPVGGPKRVLVTQQFPCQNPLPVNSGQAQRVLCPSNSSQRIPLQAQKLVSSHKPVQNQKQKQLQATSVPHPVSRPLNNTQKSKQPLPSAPENNPEEELASKQKNEESKKRQWALEDFEIGRPLGKGKFGNVYLAREKQSKFILALKVLFKAQLEKAGVEHQLRREVEIQSHLRHPNILRLYGYFHDATRVYLILEYAPLGTVYRELQKLSKFDEQRTATYITELANALSYCHSKRVIHRDIKPENLLLGSAGELKIADFGWSVHAPSSRRTTLCGTLDYLPPEMIEGRMHDEKVDLWSLGVLCYEFLVGKPPFEANTYQETYKRISRVEFTFPDFVTEGARDLISRLLKHNPSQRPMLREVLEHPWITANSSKPSNCQNKESASKQS
